PubChem BioAssay AID1259308 – NCATS – 2017
Assay: 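Knock-downs that increase output of a recombinant reporter protein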 (primary screen). System: human HEK293 embryonic kidney cells stably expressing firefly luciferase (HEK-CMV-Luc2-Hygro). Reagents: single siRNA against human genes, 0.8 pmol siRNA per well. Duration: 72 h. Detection: 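Luciferase light (ONE-Glo) measured on one replicate plate set and viability (CellTiter-Glo) on the other, scaled to a negative control siRNA, with robust z-scores and luciferase per cell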. Scale: total luciferase, z-score and total luciferase, % of control: higher = more reporter protein produced. Active means: 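Active when the median/MAD z-score for overall luciferase is greater than 3; a gene was taken forward for validation with new siRNAs if at least two of its three siRNAs passed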. Calls: active = raised luciferase; inactive = no rise.
The deposit covers about 59,000 reagents; shown is a part drawn at random. About 1,510 of them (2.6%) were called active. 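Calls use total luciferase alone and ignore viability, so some active siRNAs may act by altering cell number.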 Entries without a mark were called inactive. The numbers tell different reagents against one gene apart. Further read-outs or replicates are left out here. Reagent sequences are not shown.

no.	gene	reagent	total luciferase, z-score	total luciferase, % of control
1	H2BW1 (GeneID 158983)	1	0.187	85.6
2	H2BW1 (GeneID 158983)	2	1.07	103
3	H2BW1 (GeneID 158983)	3	0.228	86.4
4	DEFA4 (GeneID 1669)	1	-0.00126	81.9
5	DEFA4 (GeneID 1669)	2	0.378	89.4
6	DEFA4 (GeneID 1669)	3	1.29	108
7	TRIM10 (GeneID 10107)	1	0.308	88
8	TRIM10 (GeneID 10107)	2	1.03	102
9	TRIM10 (GeneID 10107)	3	-0.539	71.2
10	NCOA1 (GeneID 8648)	1	2.46	131
11	NCOA1 (GeneID 8648)	2	0.00308	81.9
12	NCOA1 (GeneID 8648)	3	-1.42	53.6
13	KIFC2 (GeneID 90990)	1	-0.109	79.7
14	KIFC2 (GeneID 90990)	2	2.16	125
15	KIFC2 (GeneID 90990)	3	-0.331	75.3
16	KLHDC7B (GeneID 113730)	1	0.111	84.1
17	KLHDC7B (GeneID 113730)	2	-0.000852	81.9
18	KLHDC7B (GeneID 113730)	3	-0.0647	80.6
19	MALRD1 (GeneID 340895)	1	0.00286	81.9
20	MALRD1 (GeneID 340895)	2	-0.138	79.1
21	MALRD1 (GeneID 340895)	3	0.512	92.1
22	MALRD1 (GeneID 340895)	4	1.45	111
23	MALRD1 (GeneID 340895)	5	-0.371	74.5
24	MALRD1 (GeneID 340895)	6	0.736	96.5
25	BCAR1 (GeneID 9564)	1	0.686	95.5
26	BCAR1 (GeneID 9564)	2	-0.374	74.5
27	BCAR1 (GeneID 9564)	3	-0.874	64.5
28	LOXL1 (GeneID 4016)	1	0.935	100
29	LOXL1 (GeneID 4016)	2	1.57	113
30	LOXL1 (GeneID 4016)	3	-1.32	55.6
31	NGEF (GeneID 25791)	1	-1.96	42.9
32	NGEF (GeneID 25791)	2	-0.587	70.2
33	NGEF (GeneID 25791)	3	0.503	91.9

A few values from above.
Result for MALRD1 (GeneID 340895) #1 under “total luciferase, % of control”: 81.9
Result for NGEF (GeneID 25791) #1 in “total luciferase, z-score”: -1.96
Entry of TRIM10 (GeneID 10107) #1 in “total luciferase, z-score”: 0.308
MALRD1 (GeneID 340895) #6, total luciferase, % of control: 96.5
TRIM10 (GeneID 10107) #3, total luciferase, % of control → 71.2
Under “total luciferase, % of control”, MALRD1 (GeneID 340895) #4 shows 111

The results go on.
no.	gene	reagent	total luciferase, z-score	total luciferase, % of control
34	BAZ1A (GeneID 11177)	1	-0.265	76.6
35	BAZ1A (GeneID 11177)	2	-0.00876	81.7
36	BAZ1A (GeneID 11177)	3	-0.348	75
37	MYLIP (GeneID 29116)	1	-0.974	62.5
38	MYLIP (GeneID 29116)	2	-0.55	70.9
39	MYLIP (GeneID 29116)	3	0.00493	82
40	PIWIL1 (GeneID 9271)	1	-0.295	76
41	PIWIL1 (GeneID 9271)	2	-2.64	29.4
42	PIWIL1 (GeneID 9271)	3	3.13 (active)	144
43	MYH4 (GeneID 4622)	1	-1.87	44.7
44	MYH4 (GeneID 4622)	2	-1.3	56.1
45	MYH4 (GeneID 4622)	3	-0.531	71.3
46	TRAF4 (GeneID 9618)	1	3.25 (active)	147
47	TRAF4 (GeneID 9618)	2	1.21	106
48	TRAF4 (GeneID 9618)	3	1.3	108
49	ATP5MK (GeneID 84833)	1	-0.445	73
50	ATP5MK (GeneID 84833)	2	-1.17	58.7
51	ATP5MK (GeneID 84833)	3	2.02	122
52	MTFR2 (GeneID 113115)	1	-0.543	71.1
53	MTFR2 (GeneID 113115)	2	1.14	105
54	MTFR2 (GeneID 113115)	3	1.55	113
55	ARFIP1 (GeneID 27236)	1	-0.18	78.3
56	ARFIP1 (GeneID 27236)	2	-2.11	39.8
57	ARFIP1 (GeneID 27236)	3	1.81	118
58	F11R (GeneID 50848)	1	-1.14	59.3
59	F11R (GeneID 50848)	2	0.0248	82.4
60	F11R (GeneID 50848)	3	0.599	93.8
61	VASN (GeneID 114990)	1	-0.441	73.1
62	VASN (GeneID 114990)	2	-1.39	54.2
63	VASN (GeneID 114990)	3	-0.303	75.9
64	DCDC1 (GeneID 341019)	1	0.537	92.6
65	DCDC1 (GeneID 341019)	2	-0.00344	81.8
66	DCDC1 (GeneID 341019)	3	0.424	90.3
67	DCDC1 (GeneID 341019)	4	-0.658	68.8
68	DCDC1 (GeneID 341019)	5	2.43	130
69	DCDC1 (GeneID 341019)	6	0.495	91.7
70	CHRNE (GeneID 1145)	1	-0.687	68.2
71	CHRNE (GeneID 1145)	2	-1.67	48.6
72	CHRNE (GeneID 1145)	3	-0.22	77.5
73	MTTP (GeneID 4547)	1	0.821	98.2
74	MTTP (GeneID 4547)	2	0.51	92
75	MTTP (GeneID 4547)	3	-0.737	67.2
